Reference: the supplement of paper PMC7661543
Differences between knockout arms are mostly noise.

Test system: MDA-MB-231
Assay: relative cell number vs DMSO control (72 h) (% of DMSO); higher = less growth inhibition (more cells)
Description: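 QMAP-Seq: a pool of 5 breast cancer cell lines (ZR-75-1, SKBR3, HCC-38, MDA-MB-231, BT-20), each carrying 12 doxycycline-inducible Cas9 sgRNA perturbations (11 knockouts plus non-targeting sgNT), was treated with compounds for 72 h at four 10-fold doses (10 nM-10 uM or 1 nM-1 uM range). Barcodes were amplified and sequenced, and cell number was interpolated from 293T spike-in standard curves. The result is expressed as % of the median of DMSO wells. Two biological replicates.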

CCC(C)SSc1ncc[nH]1 (configuration not stated) [PX12]
Conditions	relative cell number
sgRNA knockout: sgATF3, 10 nM	105
sgRNA knockout: sgATF3, 100 nM	115
sgRNA knockout: sgATF3, 1000 nM	96.2
sgRNA knockout: sgATF3, 10000 nM	49.1
sgRNA knockout: sgATF4, 10 nM	105
sgRNA knockout: sgATF4, 100 nM	120
sgRNA knockout: sgATF4, 1000 nM	111
sgRNA knockout: sgATF4, 10000 nM	56
sgRNA knockout: sgATF6, 10 nM	100
sgRNA knockout: sgATF6, 100 nM	110
sgRNA knockout: sgATF6, 1000 nM	96.52
sgRNA knockout: sgATF6, 10000 nM	45.4
sgRNA knockout: sgATG7, 10 nM	98.1
sgRNA knockout: sgATG7, 100 nM	104.5
sgRNA knockout: sgATG7, 1000 nM	82.9
sgRNA knockout: sgATG7, 10000 nM	53.9
sgRNA knockout: sgERN1, 10 nM	124
sgRNA knockout: sgERN1, 100 nM	111
sgRNA knockout: sgERN1, 1000 nM	110
sgRNA knockout: sgERN1, 10000 nM	48.2
sgRNA knockout: sgHSF1, 10 nM	105
sgRNA knockout: sgHSF1, 100 nM	88.9
sgRNA knockout: sgHSF1, 1000 nM	106
sgRNA knockout: sgHSF1, 10000 nM	52.11
sgRNA knockout: sgHSF2, 10 nM	111
sgRNA knockout: sgHSF2, 100 nM	115
sgRNA knockout: sgHSF2, 1000 nM	98
sgRNA knockout: sgHSF2, 10000 nM	46.7
sgRNA knockout: sgKEAP1, 10 nM	118
sgRNA knockout: sgKEAP1, 100 nM	94
sgRNA knockout: sgKEAP1, 1000 nM	115
sgRNA knockout: sgKEAP1, 10000 nM	63.4
sgRNA knockout: sgNFE2L2, 10 nM	93.4
sgRNA knockout: sgNFE2L2, 100 nM	132
sgRNA knockout: sgNFE2L2, 1000 nM	101
sgRNA knockout: sgNFE2L2, 10000 nM	49.9
sgRNA knockout: sgSLC35F2, 10 nM	109
sgRNA knockout: sgSLC35F2, 100 nM	95.8
sgRNA knockout: sgSLC35F2, 1000 nM	93.84
sgRNA knockout: sgSLC35F2, 10000 nM	56.9
sgRNA knockout: sgXBP1, 10 nM	101
sgRNA knockout: sgXBP1, 100 nM	93.9
sgRNA knockout: sgXBP1, 1000 nM	81.9
sgRNA knockout: sgXBP1, 10000 nM	49.2

Cc1ncc([N+](=O)[O-])n1CC(O)CCl (configuration not stated) [Ornidazole]
Conditions	relative cell number
sgRNA knockout: sgATF3, 10 nM	85.5
sgRNA knockout: sgATF3, 100 nM	103
sgRNA knockout: sgATF3, 1000 nM	103
sgRNA knockout: sgATF3, 10000 nM	88.4
sgRNA knockout: sgATF4, 10 nM	119
sgRNA knockout: sgATF4, 100 nM	90.9
sgRNA knockout: sgATF4, 1000 nM	113
sgRNA knockout: sgATF4, 10000 nM	123
sgRNA knockout: sgATF6, 10 nM	84.1
sgRNA knockout: sgATF6, 100 nM	88.7
sgRNA knockout: sgATF6, 1000 nM	102
sgRNA knockout: sgATF6, 10000 nM	118
sgRNA knockout: sgATG7, 10 nM	87.9
sgRNA knockout: sgATG7, 100 nM	116
sgRNA knockout: sgATG7, 1000 nM	114
sgRNA knockout: sgATG7, 10000 nM	92.6
sgRNA knockout: sgERN1, 10 nM	74.5
sgRNA knockout: sgERN1, 100 nM	102
sgRNA knockout: sgERN1, 1000 nM	94.4
sgRNA knockout: sgERN1, 10000 nM	96.4
sgRNA knockout: sgHSF1, 10 nM	99.3
sgRNA knockout: sgHSF1, 100 nM	104
sgRNA knockout: sgHSF1, 1000 nM	99.3
sgRNA knockout: sgHSF1, 10000 nM	88.2
sgRNA knockout: sgHSF2, 10 nM	97
sgRNA knockout: sgHSF2, 100 nM	103
sgRNA knockout: sgHSF2, 1000 nM	95.4
sgRNA knockout: sgHSF2, 10000 nM	113
sgRNA knockout: sgKEAP1, 10 nM	89.8
sgRNA knockout: sgKEAP1, 100 nM	114
sgRNA knockout: sgKEAP1, 1000 nM	119
sgRNA knockout: sgKEAP1, 10000 nM	111
sgRNA knockout: sgNFE2L2, 10 nM	73.8
sgRNA knockout: sgNFE2L2, 100 nM	103
sgRNA knockout: sgNFE2L2, 1000 nM	99.8
sgRNA knockout: sgNFE2L2, 10000 nM	102.1
sgRNA knockout: sgSLC35F2, 10 nM	88.9
sgRNA knockout: sgSLC35F2, 100 nM	89.86
sgRNA knockout: sgSLC35F2, 1000 nM	111
sgRNA knockout: sgSLC35F2, 10000 nM	81.4
sgRNA knockout: sgXBP1, 10 nM	110
sgRNA knockout: sgXBP1, 100 nM	97.5
sgRNA knockout: sgXBP1, 1000 nM	96.7
sgRNA knockout: sgXBP1, 10000 nM	98.5

Nc1nc(OCc2cc(Br)cs2)c2[nH]cnc2n1 [Lomeguatrib]
Conditions	relative cell number
sgRNA knockout: sgATF3, 10 nM	115
sgRNA knockout: sgATF3, 100 nM	107
sgRNA knockout: sgATF3, 1000 nM	104
sgRNA knockout: sgATF3, 10000 nM	93.1
sgRNA knockout: sgATF4, 10 nM	101
sgRNA knockout: sgATF4, 100 nM	142
sgRNA knockout: sgATF4, 1000 nM	108
sgRNA knockout: sgATF4, 10000 nM	82.3
sgRNA knockout: sgATF6, 10 nM	115
sgRNA knockout: sgATF6, 100 nM	105
sgRNA knockout: sgATF6, 1000 nM	109
sgRNA knockout: sgATF6, 10000 nM	88.4
sgRNA knockout: sgATG7, 10 nM	93.1
sgRNA knockout: sgATG7, 100 nM	90.7
sgRNA knockout: sgATG7, 1000 nM	104
sgRNA knockout: sgATG7, 10000 nM	86.9
sgRNA knockout: sgERN1, 10 nM	82.3
sgRNA knockout: sgERN1, 100 nM	85.8
sgRNA knockout: sgERN1, 1000 nM	83.6
sgRNA knockout: sgERN1, 10000 nM	92.2
sgRNA knockout: sgHSF1, 10 nM	97.2
sgRNA knockout: sgHSF1, 100 nM	117
sgRNA knockout: sgHSF1, 1000 nM	84.8
sgRNA knockout: sgHSF1, 10000 nM	98.8
sgRNA knockout: sgHSF2, 10 nM	94.6
sgRNA knockout: sgHSF2, 100 nM	96.4
sgRNA knockout: sgHSF2, 1000 nM	96.5
sgRNA knockout: sgHSF2, 10000 nM	76.7
sgRNA knockout: sgKEAP1, 10 nM	110
sgRNA knockout: sgKEAP1, 100 nM	120
sgRNA knockout: sgKEAP1, 1000 nM	100
sgRNA knockout: sgKEAP1, 10000 nM	94.3
sgRNA knockout: sgNFE2L2, 10 nM	109
sgRNA knockout: sgNFE2L2, 100 nM	89.3
sgRNA knockout: sgNFE2L2, 1000 nM	95.9
sgRNA knockout: sgNFE2L2, 10000 nM	99.7
sgRNA knockout: sgSLC35F2, 10 nM	89.9
sgRNA knockout: sgSLC35F2, 100 nM	112
sgRNA knockout: sgSLC35F2, 1000 nM	99.2
sgRNA knockout: sgSLC35F2, 10000 nM	86.5
sgRNA knockout: sgXBP1, 10 nM	100
sgRNA knockout: sgXBP1, 100 nM	109
sgRNA knockout: sgXBP1, 1000 nM	91.3
sgRNA knockout: sgXBP1, 10000 nM	79.841
